For one substance, binding results are on record in article PMC4110025.

Amino acid sequences for entries named in this document (tags omitted).
UniProt P05412: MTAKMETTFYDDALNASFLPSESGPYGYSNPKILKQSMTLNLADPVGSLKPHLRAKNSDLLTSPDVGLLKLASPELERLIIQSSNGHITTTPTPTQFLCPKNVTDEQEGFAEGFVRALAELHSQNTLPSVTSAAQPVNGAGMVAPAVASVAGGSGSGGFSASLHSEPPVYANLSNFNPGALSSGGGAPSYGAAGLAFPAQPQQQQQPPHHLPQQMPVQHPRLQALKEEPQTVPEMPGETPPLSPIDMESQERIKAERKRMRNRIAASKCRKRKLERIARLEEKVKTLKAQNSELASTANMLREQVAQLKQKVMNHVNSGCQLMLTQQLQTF

Results are given in words; binding and its absence hold for the method and conditions named. In cells and extracts the contact can be indirect. Some binding calls cover weakened binding; strength is not graded here.

This experiment addresses c-Jun (human (endogenous in A549)) (UniProt P05412). As to the kind of experiment: co-IP; 0.5 mg total lysate of A549 cells (stably transfected with HPV-16 E6, E7 or controls) incubated with 2 µg anti-c-Jun antibody overnight at 4°C, protein A agarose; IP lysis buffer 20 mmol/L Tris pH 7.5, 150 mmol/L NaCl, 1% Triton X-100; blot for HIF-1α and c-Jun; normal rabbit IgG as negative ….

As to “hypoxia-inducible factor-1α (from UniProt Q16665-3 1-850)”, the binding result was “binds”.
